Laboratory results taken from publication PMC3511402, “Structural and Biochemical Studies on ATP Binding and Hydrolysis by the Escherichia coli RNA Chaperone Hfq” (PLoS ONE, 2012).
For at least one entry, the source does not settle the construct or the ends of the probe. At least one verdict rests on a figure or table, not on a statement of the authors.

The chains behind the UniProt entries cited, without tags or fusion partners. Where a name states a change or a piece, a line headed by the entry shows the natural chain unless it says otherwise.
UniProt P0A6X3: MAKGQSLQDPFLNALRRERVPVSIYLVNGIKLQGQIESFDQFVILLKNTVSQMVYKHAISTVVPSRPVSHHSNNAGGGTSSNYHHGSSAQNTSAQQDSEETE

Biological target: Hfq (UniProt P0A6X3)
Test: EMSA
Details: binary complex, ATP does not destabilize unless in vast excess; EMSA: 10 mM Tris pH 7.5, 60 mM NH4Cl, 5 mM beta-mercaptoethanol, 2 mM MgOAc, 100 ng yeast tRNA, 5 nM labelled RNA, room temperature; native 4% gel in TAE; recombinant protein; residues 1-102; label: 5'-32P

## AAAAAAAAAAAAAAAAAAAAAAAAAAA [poly(A)27]
  binding result: binds
